# Measured values as given in PubChem BioAssay AID1347423 (Functional Genomics Laboratory (NCATS/FGL), 2020).
# In all, about 52,000 sequences went through this assay and about 210 (0.4%) were called active.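 The calls were made as follows: active = gene whose silencing raises cell survival under the drug, median off-target-corrected z-score across its silencing RNAs 2 or more; inactive = the rest.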 This is one part of the list.
# Test: Resistance to Poly (ADP-Ribose) Polymerase inhibitor: Gene Identification via Genome-wide siRNA Screen
# Conditions: mouse BRCA2 R2336H ES cells, olaparib, CellTiter-Glo viability; active compounds read high
# Method in brief: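 Mouse BRCA2 R2336H ES cells were reverse-transfected with siRNA (20 nM final), treated at 48 h with 500 nM olaparib, and read by CellTiter-Glo after 72 h. Scores: MAD-based z per siRNA, median per gene, seed off-target correction.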
row,Sequence,z-score
1,GGAAUAUUUUGCUUGUGUGTT against Dnmt3a,inactive: 0.841
2,GCAUCAAAAUCGGUUUCUGTT against 4930526D03Rik,inactive: -0.28
3,GGCCUGCUUUGUUGUAGUUTT against Olfr830,inactive: -0.135
4,GGAUAUUCCCAAUUACAAGTT against Plxna3,inactive: -0.0571
5,CCCAGAGUGAUUACUUCAGTT against Klhl15,inactive: -1.68
6,GCAGUGAUAGCUUCAAUCUTT against Oasl2,inactive: 0.417
7,GGGCCAAAAUGGUUCCAGCTT against Cyp4b1,inactive: 0.343
8,CCAGAUAUCUGGGUACUUUTT against Zfp353,inactive: -0.0571
9,GGAGAAGAAAGCAAAAACCTT against Ing1,inactive: 0.092
10,GCAUCAUCACCACCAUCACTT against Pou3f3,inactive: 0.948
11,GCCAUAUAUCUGCUAUCAUTT against A330019N05Rik,inactive: -0.0172
12,GGAGAAGAGAGGUUGGACCTT against Gal,inactive: 0.00361
13,GGUAUGAUGGGAAAUUUUUTT against Tmod2,inactive: 1.24
14,GGUUCCUCUCAAAAUUCAATT against Gprc6a,inactive: 0.772
15,GCCCGCUCUCGGAUUUUGATT against Htr1b,active: 2.87
16,CCAGUACAUUGAGCUGGAUTT against Rya3,inactive: 2.85
17,GCCGCACGUUUUUGAGUUGTT against B930052A04Rik,inactive: 2.23
18,CCUUAUGUCUACAAUCAAATT against Plac1,inactive: -0.676
19,GGACUUGGACCAAUAGAAGTT against 4933425O20Rik,inactive: -0.717
20,GCGUAGAAGACACUUAUAGTT against 2700069A02Rik,inactive: -2.12
21,CCAGAAUGUUACAUGCAGGTT against 4933425M15Rik,inactive: -0.671
22,CCAUACUUAUGCCAGCCUGTT against Tcfeb,inactive: -0.681
23,GGACCACUAAUUUCAAUGCTT against A730089K16Rik,inactive: -0.377
24,GGACGGAAAGCUCAUCAUUTT against Gnb2,inactive: -2.07
25,GGAGUAGCUGAUCAAACCATT against Slc25a12,inactive: -0.973
26,GGAUGCCUUCGUCAUUCUATT against AW547365,inactive: 0.257

# Reformatted tab-delimited: entries from further up.
row	Sequence	z-score
3	GGCCUGCUUUGUUGUAGUUTT against Olfr830	inactive: -0.135
4	GGAUAUUCCCAAUUACAAGTT against Plxna3	inactive: -0.0571
5	CCCAGAGUGAUUACUUCAGTT against Klhl15	inactive: -1.68
6	GCAGUGAUAGCUUCAAUCUTT against Oasl2	inactive: 0.417
7	GGGCCAAAAUGGUUCCAGCTT against Cyp4b1	inactive: 0.343
8	CCAGAUAUCUGGGUACUUUTT against Zfp353	inactive: -0.0571
9	GGAGAAGAAAGCAAAAACCTT against Ing1	inactive: 0.092
10	GCAUCAUCACCACCAUCACTT against Pou3f3	inactive: 0.948
11	GCCAUAUAUCUGCUAUCAUTT against A330019N05Rik	inactive: -0.0172
12	GGAGAAGAGAGGUUGGACCTT against Gal	inactive: 0.00361
13	GGUAUGAUGGGAAAUUUUUTT against Tmod2	inactive: 1.24
14	GGUUCCUCUCAAAAUUCAATT against Gprc6a	inactive: 0.772
15	GCCCGCUCUCGGAUUUUGATT against Htr1b	active: 2.87
16	CCAGUACAUUGAGCUGGAUTT against Rya3	inactive: 2.85
17	GCCGCACGUUUUUGAGUUGTT against B930052A04Rik	inactive: 2.23

# Next entries:

row,Sequence,z-score
1,GCUUACUCCAGCAUAUUUCTT against Qdpr,inactive: 0.753
2,CGCAAGAGUUCCUUUUUUUTT against Sla,inactive: 0.733
3,GGAAAUAAUCCGCCCACGUTT against 4933425I22Rik,inactive: -0.421
4,GCUCAGCAGGAAAUAACAGTT against 2310015N07Rik,inactive: 0.0484
5,CCGCUACCUUUGAACGAAUTT against Ren1,inactive: 0.282
6,GCCUCUAGAAUGUAUGGAGTT against 1810073M12Rik,inactive: -0.651
7,CCCUGUGAAAGUGUCAUAUTT against Pigq,inactive: -0.474
8,CCACAGAACAAUUUUCACATT against Rnase11,inactive: 0.418
9,GGCACCACUGAUUUGAAUCTT against Arfrp2,inactive: 1.72
10,CCUUUACCAAUGUUGGCCCTT against Svs1,inactive: 0.119
11,GGUGCAGUUUCUCCUCUUUTT against Pla1a,inactive: -1.27
12,CCAUUGAACAACUGUCCUATT against Prkcbp1,inactive: 1.32
13,GGAGUUUCUAGAACUCUCATT against Zcchc5,inactive: 0.166
14,GGGUCCUAAAAAUUCAAUUTT against Decr2,inactive: 0.705
15,GGCUACUGGAGCAAGUUUATT against Apoc3,inactive: 0.557
16,CCUUCCUCGUGAUUCGCUATT against Lman2l,inactive: 2.11
17,GGUGAUGGUGUCCUAUAAATT against Hspa1l,inactive: -1.11
18,GGCUGAUUAUAAACAUGACTT against Nrap,inactive: 0.00719
19,GCAGAUUUGACAUGGAAAATT against Zp2,inactive: 2.08
20,GGGUGUCUUUCCUGUGUGATT against AW209059,inactive: 0.795
21,GGUUUUGUGCCUUAACAGUTT against Abcc4,inactive: 1.2
22,GGAUAUUCCCAAGUCUUUATT against Cyp2e1,inactive: 1.98
23,GGUAGAAAAGAAUAUUGAGTT against 4930413O22Rik,inactive: 1.45
24,GCACAAGUCUAAACAGCUGTT against 5830467P10Rik,inactive: -0.649
25,CCUUCUUGUGAAUUUACCUTT against B130003F20Rik,inactive: 0.516
